Experiment [1] has as its system A2780. Briefly: cell growth inhibition ratio vs untreated control (CCK8); higher = stronger inhibition of cell viability. Conditions: 10 µM; 48 h. As for the experimental part:
(§1)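 Natural product library (Topscience) screened at 10 µM final concentration for 48 h on ovarian cancer A2780 cells and patient-derived ovarian cancer cells (PDC) in 96-well plates; viability read by CCK8 and reported as inhibition ratio (%) relative to untreated control. Single-dose primary screen.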

Experiment [2] has as its system patient-derived ovarian cancer cells (PDC). The description is as above. Conditions: 10 µM; 48 h. As for the experimental part: as §1

Where a name gives a salt, the structure may show the parent alone. The list shows a part of the results. Most values come without repeats; read them as rough.

Take `CC1(C)CC[C@]2(C(=O)O)CC[C@]3(C)C(=CC[C@@H]4[C@@]5(C)CC[C@H](O[C@@H]6O[C@H](C(=O)O)[C@@H](O)[C@H](O[C@@H]7OC[C@@H](O)[C@H](O)[C@H]7O)[C@H]6O)C(C)(C)[C@@H]5CC[C@]43C)[C@@H]2C1` [Momordin Ic]: the results for the “cell growth inhibition ratio” value in experiment [1] and in experiment [2] were 12.2% and 3.26%, respectively.

Consider `O=c1cc(-c2ccc(O)c(-c3c(O)cc(O)c4c(=O)cc(-c5ccc(O)cc5)oc34)c2)oc2cc(O)cc(O)c12` [Amentoflavone], for which the “cell growth inhibition ratio” value in experiment [1] is 20.1%; in experiment [2], -12.4%.

With `CC(C)[C@@H]1CC[C@@H](C)C[C@H]1O` [L-Menthol], the “cell growth inhibition ratio” value is 2.34% in experiment [1] and -5.3% in experiment [2].

Take `C[C@H]1[C@H](C)CC[C@]2(C(=O)O[C@@H]3O[C@H](CO[C@@H]4O[C@H](CO)[C@@H](O[C@@H]5O[C@@H](C)[C@H](O)[C@@H](O)[C@H]5O)[C@H](O)[C@H]4O)[C@@H](O)[C@H](O)[C@H]3O)CC[C@]3(C)C(=CC[C@@H]4[C@@]5(C)C[C@@H](O)[C@H](O)[C@@](C)(CO)[C@@H]5[C@H](O)C[C@]43C)[C@H]12` [Madecassoside]: the “cell growth inhibition ratio” value in experiment [1] is 9.12%; in experiment [2] it was -0.141%.

In the case of `CC(C)(O)[C@H]1CC[C@@](C)(C2[C@@H](O)C[C@@]3(C)[C@@H]4C[C@H](O)C5C(C)(C)[C@@H](O)CCC56CC46CC[C@]23C)O1` (some centres not stated) [Cycloastragenol], the “cell growth inhibition ratio” value in experiment [1] came out at 1.21%; in experiment [2], 15.7%.

As to `NC[C@@H]1O[C@H](O[C@H]2[C@@H](O)[C@H](O[C@@H]3[C@@H](O)[C@H](N)C[C@H](N)[C@H]3O[C@H]3O[C@H](CO)[C@@H](O)[C@H](O)[C@H]3N)O[C@@H]2CO)[C@H](N)[C@@H](O)[C@@H]1O` [Paromomycin Sulfate], the entries for the “cell growth inhibition ratio” value in experiment [1] and in experiment [2] were 3.8% and 12.7%, respectively.

Values taken from the supplement of paper PMC10373366.
